Data from the supplement of paper PMC5407854, “Inhibitor of ppGalNAc-T3-mediated O-glycosylation blocks cancer cell invasiveness and lowers FGF23 levels” (eLife, 2017).
Some of the results follow. Small differences around the control level are noise.

Legend:
[1] = tested on: ppGalNAc-T3 sensor; assay: T3 sensor activation Q score (MG/GFP ratio z-score vs DMSO controls) (SD units); higher = more sensor activation (inhibition of ppGalNAc-T3 glycosylation); settings: HEK293 sensor cells; 10 µM; 6 h
Description: (§1)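 Cells were treated with compound at 10 uM for 6 h, then MG/GFP ratio was read by flow cytometry (10,000 cells per well, duplicate wells). Q = (R - R_neg)/SD_neg relative to DMSO vehicle controls; the signal rises when the glycosyltransferase is inhibited.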

[2] = tested on: ppGalNAc-T2 sensor; assay: T2 sensor activation Q score (MG/GFP ratio z-score vs DMSO controls) (SD units); higher = more sensor activation (inhibition of ppGalNAc-T2 glycosylation); settings: HEK293 sensor cells; 10 µM; 6 h
Description: as §1

| SMILES | T3 sensor activation Q score [1] | T2 sensor activation Q score [2] |
| --- | --- | --- |
| CC(C)c1ccc(NC(=O)c2cnccn2)cc1 | 0.545 | -0.06 |
| O=C(Nc1cc(Cl)ccc1Cl)[C@@H]1C[C@@H]1c1ccccc1 | 0.555 | 0.395 |
| OCC(O)Cn1c2ccccc2c2ccccc21 (stereo not drawn) | 1.26 | 2.69 |
| Cc1cccc(N2C(=O)CC(N3CCN(C)CC3)C2=O)c1 (stereo not drawn) | 0.41 | -0.105 |
| COc1nc(Nc2ccc(I)cc2)nc(OC)n1 | -0.03 | 0.505 |
| Cc1ccc2[nH]c(C)c(CCC(=O)NC3CCCCC3)c2c1 | 0.6 | -0.365 |
| CC(=O)c1cccc(NC(=O)c2cccs2)c1 | 0.245 | 0.025 |
| COc1cc(CN2CCN(C/C=C/c3ccccc3)CC2)cc(OC)c1O | -0.3 | 0.195 |
| CN1C(=O)C(=O)C(=C(O)c2ccccc2)C1c1ccccc1 (stereo not drawn) | 0.4 | -0.53 |
| Cc1nc2nc(N)[nH]n2c(=O)c1Cc1ccccc1 | 0.88 | -0.69 |
| CC1(C)Cc2ccccc2C(Nn2cnnc2)=N1 | 0.935 | 0.95 |
| COc1ccccc1NC1=CC(=O)CC(c2ccccc2)C1 (stereo not drawn) | -0.51 | 0.01 |
| CCn1c(=N)n(CCO)c2ccccc21 | 0.35 | -0.155 |
| Cc1ccc(N2C(=O)CC(N3CCN(c4ccc(F)cc4)CC3)C2=O)c(C)c1 (stereo not drawn) | -0.295 | -0.035 |
| NC(=O)C(=O)Nc1cccc(Cl)c1Cl | 1.09 | -0.8 |
| CS(=O)(=O)c1nc2ccccc2[nH]1 | 0.295 | 0.81 |
| COc1cc(OC)c(CN2CCCN(C)CC2)cc1Br | -0.33 | 0.57 |
| Cc1cccc(NC2=C([N+](=O)[O-])CS(=O)(=O)C2)c1 | -0.39 | -0.62 |
| CC(=O)Nc1ccc(NC(=O)CCN2C(=O)c3ccccc3C2=O)cc1 | 0.065 | -0.425 |
| O=C(Nc1ccc(-c2ccc([N+](=O)[O-])cc2)cc1)c1ccco1 | 0.755 | -0.855 |
| O=[N+]([O-])c1ccc(NCCNCCO)cc1N1CCOCC1 | 1.41 | 0.64 |
| COc1ccc(OC)c(CN2CCC(N3CCCCC3)CC2)c1 | 1.36 | -1.67 |
| O=C(Nc1ccc(I)cc1)c1ccco1 | 0.285 | 0.02 |

| SMILES | T3 sensor activation Q score [1] | T2 sensor activation Q score [2] |
| --- | --- | --- |
| CC(=O)Nc1ccc(NC2=C(N3CCCCC3)C(=O)c3ccccc3C2=O)cc1 | 0.08 | 1.22 |
| O=C(O)C1CCCCN1Cc1ccccc1 (stereo not drawn) | 0.435 | 0.33 |
| Cc1c(C(=O)NC2CC(C)(C)NC(C)(C)C2)cccc1[N+](=O)[O-] | 0.12 | -0.13 |
| COc1ccc(C(=O)c2ccc(Br)cc2)cc1 | 0.42 | -0.95 |
| CCN1CCN(C/C=C/c2ccc(N(C)C)cc2)CC1 | 0.23 | -0.575 |
| O=C(O)C1CCCCC1C(=O)Nc1ccccc1Cl (stereo not drawn) | -0.485 | 0.925 |
| O=C(O)CCCCc1cc2c(s1)CCCC(=O)N2 | 0.03 | 0.985 |
| Cc1c(Cl)cccc1NC(=O)[C@@H]1C[C@@H]1c1ccccc1 | -0.55 | 1.26 |
| O=C(Nc1ccccc1Br)c1ccco1 | -0.58 | -0.3 |
| COc1ccc(-c2csc(Nc3ccc(C(=O)O)cc3)n2)cc1 | -0.44 | -0.49 |
| CC(C)NC(=O)COc1ccc(Cl)cc1Cl | 0.405 | 0 |
| COc1ccccc1N1CCN(C2CCCC(C)C2)CC1 (stereo not drawn) | 0.495 | -0.21 |
| CCOc1ccccc1CN1CCN(c2ccc([N+](=O)[O-])cc2)CC1 | 0.48 | -1.54 |
| Cc1ccc(NC(=O)c2cc(N3C(=O)CCC3=O)ccc2N2CCOCC2)cc1Cl | 0.18 | -0.375 |
| COc1ccc(C(C)NC(=O)c2ccccc2)cc1OC (stereo not drawn) | -0.5 | 1.11 |
| Cc1ccc2c(N)c(C(=O)c3ccc(Cl)cc3)sc2n1 | 0.64 | -0.225 |
| CCCN(CCO)Cc1c(Cl)cccc1Cl | 1.77 | 0.545 |
| Clc1ccc(CNC2CCN(Cc3ccccc3)CC2)cc1 | -0.145 | -0.06 |
| O=C1c2ccccc2C(=O)N1n1cnnc1 | -0.255 | -0.995 |
| COc1ccc(S(=O)(=O)Nc2ccccc2C)cc1 | -0.065 | -0.515 |
| CN(N)c1nc(N2CCOCC2)nc(N2CCOCC2)n1 | 0.635 | 0.19 |
| CC(C)(C)S(=O)(=O)c1cccc(S(=O)(=O)C(C)(C)C)c1 | 0.05 | -1.07 |
| CN1CCC(NCc2ccccc2F)CC1 | 0.6 | -0.065 |

| SMILES | T3 sensor activation Q score [1] | T2 sensor activation Q score [2] |
| --- | --- | --- |
| O=[N+]([O-])c1ccc(N2CCN(Cc3cccs3)CC2)cc1 | 1.36 | -0.615 |
| CCN(CC)S(=O)(=O)c1cc(C(=O)O)ccc1Cl | 0.785 | -0.975 |
| CC(C)c1ccc(CN2CCCN(C)CC2)cc1 | 1.07 | -0.325 |
| O=C(Nc1cccc(Cl)c1)c1cccc(Br)c1 | 0.245 | -0.74 |
| NC(=O)CS(=O)(=O)c1ccc(Cl)cc1 | -0.295 | -1.66 |
| O=C(Cc1ccc(F)cc1F)Nc1ccccc1 | 0.465 | -0.65 |
| COc1ccccc1N1CCN(C(=O)c2cccc(C)c2)CC1 | 0.205 | -0.435 |
| Cc1ccc(O)c(-c2[nH]ncc2C(=O)c2ccccc2)c1 | 0.085 | 0.75 |
| COc1cc(C)c(CN2CCN(Cc3ccc4c(c3)OCO4)CC2)cc1C | 0.125 | 1.08 |
| CCN(CC)S(=O)(=O)c1ccc(Br)c(C(=O)O)c1 | 0.55 | 0.62 |
| CC(C)(C)NC(=O)Nc1ccc2nccnc2c1 | -0.445 | -0.595 |
| COc1ccc(CN2CCCN(C)CC2)c(OC)c1C | -0.12 | 0.325 |
| Cc1cc(C(C)(C)C)ccc1OCCCn1ccnc1 | -0.46 | 0.83 |
| CN1CCC(O)(c2ccccc2)CC1 | 0 | 0.205 |
| CCn1c(C)nc2cc(Cl)ccc21 | -0.1 | -0.285 |
| CC1CCN(C2CCN(CCc3ccccc3)CC2)CC1 | 0.76 | -0.765 |
| c1cncc(-c2nc3c4c5c(sc4ncn3n2)CCCC5)c1 | -0.65 | 2.09 |
| O=C(Nc1ccc(S(=O)(=O)Nc2nccs2)cc1)C12CC3CC(CC(C3)C1)C2 | -0.115 | 0.195 |
| CCSc1nnc(-c2ccccc2Cl)o1 | -0.055 | 0.66 |
| O=C(NCCCCc1ccccc1)c1ccc(Br)cc1 | 0.465 | -1.14 |
| CC(=O)c1ccc(NC2=C(N3CCCC3)C(=O)c3ccccc3C2=O)cc1 | 0.125 | 0.175 |
| NC(=O)C1CCN(C2CC(=O)N(c3cc(Cl)cc(Cl)c3)C2=O)CC1 (stereo not drawn) | -0.23 | -0.08 |
| CC(=O)Nc1ccc(S(=O)(=O)N2CCCCCC2)cc1 | 0.145 | 0.295 |

| SMILES | T3 sensor activation Q score [1] | T2 sensor activation Q score [2] |
| --- | --- | --- |
| Cc1ccc(N2Cc3ccccc3C2=O)cc1 | 0.6 | -0.68 |
| COc1ccc(N2CCN(Cc3ccc(OC)c(C)c3OC)CC2)cc1 | 0.26 | 1.16 |
| Cc1ccc(-c2nnc(-c3ccccc3Cl)o2)cc1 | -0.105 | 0.07 |
| CCc1ccccc1NS(=O)(=O)c1cc(Cl)ccc1OC | -0.43 | 0.185 |
| Cc1occc1C(=O)NC(C)c1ccccc1 (stereo not drawn) | -0.605 | 0.21 |
| Nc1nnc(CCc2ccccc2)s1 | 0.385 | -0.13 |
| CCCN(CCC)S(=O)(=O)c1ccc(C(=O)N2CCN(C)CC2)cc1 | 0.65 | -0.35 |
| O=C(Nc1ccccc1F)c1ccco1 | -0.08 | -0.83 |
| Cc1nc2cc(CC(=O)O)ccc2s1 | 0.12 | 1.79 |
| c1ccc2c(Cn3ccnc3)c[nH]c2c1 | 0.9 | 0.965 |
| Cc1ccc(NC(=O)Nc2ccc(Cl)cc2)cc1F | 0 | -0.78 |
| COc1ccccc1C(=O)Nc1cccc(Cl)c1C | -0.56 | -0.705 |
| CCN1CCN(CCC(C)c2ccccc2)CC1 (stereo not drawn) | 0.29 | 0.555 |
| O=C(COc1ccc(Cl)cc1Cl)Nc1ccccc1F | 0.27 | -0.395 |
| CCOc1cc(CN2CCCCCC2)ccc1OC | 0.04 | 0.055 |
| CCCNS(=O)(=O)c1ccc([N+](=O)[O-])cc1 | 0.155 | 0.295 |
| COc1ccc(C2(C(N)=O)CCCC2)cc1OC | -0.665 | 0.635 |
| NC(=O)CNC(=O)c1ccccc1 | -0.96 | -1.82 |
| Cc1ccccc1N1CCN(Cc2sccc2C)CC1 | 0.24 | -0.08 |
| CC(=O)c1ccc(N2CCN(C(=O)c3ccc(F)cc3F)CC2)c(F)c1 | 0.175 | -0.025 |
| CCCCOc1ccc(C(=O)NN)cc1 | 0.45 | -0.355 |
| Nc1cc(S(=O)(=O)c2ccc(Cl)cc2)ccc1Cl | 1.2 | -0.37 |
| Fc1ccc(CN2CCc3ccccc3C2)c(F)c1 | 0.55 | -0.375 |

| SMILES | T3 sensor activation Q score [1] | T2 sensor activation Q score [2] |
| --- | --- | --- |
| NNC(=O)CNc1ccc(Cl)cc1Br | -0.3 | 0.25 |
| NNC(=O)c1sc2cccc(Cl)c2c1Cl | -0.46 | -0.26 |
| CCOc1ccccc1N1CCN(Cc2cc3c(cc2[N+](=O)[O-])OCO3)CC1 | 0.115 | -0.12 |
| Cc1ccccc1OCCCCN1CCOCC1 | 0.51 | -0.485 |
| O=c1c2c(nc3n1CC(O)CS3)-c1ccccc1CC21CCCC1 (stereo not drawn) | -0.22 | -0.445 |
| Cc1cccc(C(=O)Nc2ccc(Cl)c(Cl)c2)c1 | -0.48 | -0.11 |
| Nc1nc(-c2ccccc2)cc(-c2ccccc2)n1 | 0.65 | -0.795 |
| O=C(O)CCC(=O)c1c[nH]c2ccccc12 | 0.335 | 0.3 |
| Cc1ccc(NC(=O)Nc2ccc(Cl)cc2)cc1 | 1.51 | 0.69 |
| Cc1cccc(C)c1NC(=O)c1ccco1 | -0.035 | 0.71 |
| CC1=NN(c2ccccc2)C(=O)C1C(=O)c1ccc(F)cc1 (stereo not drawn) | -0.375 | 0.825 |
| CC(=O)c1ccc(NC2=C(N3CCCCC3)C(=O)c3ccccc3C2=O)cc1 | -0.87 | -1.7 |
| O=C(CSc1nc2ccccc2s1)c1ccccc1 | -0.015 | 0.465 |
| CCCCOc1ccc(CN2CCN(c3ccccn3)CC2)cc1 | 0.39 | -0.595 |
| Cc1cc(C)n(-c2nc3ccccc3s2)n1 | -0.135 | -0.42 |
| C=CCn1ncc(OC)c(Cl)c1=O | -0.14 | 0.66 |
| CCN1CCN(C(=O)CCCOc2ccc(Cl)cc2Cl)CC1 | 1.13 | 0.005 |
| CN1CCCN(Cc2ccc(F)cc2)CC1 | 0.115 | 0.21 |
| O=C(Nc1ccc(Cl)cc1)N1CCc2ccccc21 | 0.545 | 0.31 |
| Clc1cccc(CN2CCc3ccccc3C2)c1Cl | 0.4 | -0.485 |
| COc1ccc(CN2CCN(c3cc(C)ccc3C)CC2)cc1OC | -0.315 | 0.24 |
| CCN(CC)CCN(C)Cc1cccc(F)c1 | 0.755 | 0.07 |

Part of the list above in order of heavy-atom count, high to low:

| SMILES | T3 sensor activation Q score [1] | T2 sensor activation Q score [2] |
| --- | --- | --- |
| CCOc1ccccc1N1CCN(Cc2cc3c(cc2[N+](=O)[O-])OCO3)CC1 | 0.115 | -0.12 |
| Cc1ccc(NC(=O)Nc2ccc(Cl)cc2)cc1 | 1.51 | 0.69 |
| NNC(=O)CNc1ccc(Cl)cc1Br | -0.3 | 0.25 |
